{"source": "the supplement of paper PMC8728848", "binders": {"B1": {"name": "SUN4 (Saccharomyces cerevisiae), P53616 (protein)", "chain": "MGSSHHHHHHSSGLVPRGSHNGSIYGDLADFSGPYEKFEDGTIPCGQFPSGQGVIPISWLDEGGWSGVENTDTSTGGSCKEGSYCSYACQPGMSKTQWPSDQPSDGRSIGGLLCKDGYLYRSNTDTDYLCEWGVDAAYVVSELSNDVAICRTDYPGTENMVIPTYVQAGDSLPLTVVDQDTYYTWQGLKTSAAYYVNNAGISVEDACVWGSSSSGVGNWAPLNFGAGSSDGVAYLSLIPNPNNGNALNFNVKIVAADDSSTVNGECIYENGSFSGGSDGCTVSVTAGKAKFVLYN"}}, "assay_in_all_cases": "glycan array binding signal (z-score within array); higher = stronger binding", "conditions_in_all_cases": "glycan notation: IUPAC condensed, linker removed; mutation: Q318A", "key": {"[1]": {"target": "Neu5Ac(a2-3)Gal(b1-4)GlcNAc(b1-3)Gal(b1-4)GlcNAc(b1-2)Man(a1-3)[Neu5Ac(a2-3)Gal(b1-4)GlcNAc(b1-3)Gal(b1-4)GlcNAc(b1-2)Man(a1-6)]Man(b1-4)GlcNAc(b1-4)GlcNAc", "outline": "(§1)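 Glycan array binding is given as a within-array Z-score, which can be read as non-binding when negative. The arrays, 3228 of them, came from the Consortium for Functional Glycomics database and were retained only where the protein sequence was available. Z-scores were averaged across arrays of the same protein sequence at different concentrations or buffers and across linkers.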"}, "[2]": {"target": "Neu5Ac(a2-3)Gal(b1-4)GlcNAc(b1-3)Gal(b1-4)GlcNAc(b1-3)Gal(b1-4)GlcNAc", "outline": "as §1"}, "[3]": {"target": "Neu5Ac(a2-3)Gal(b1-4)GlcNAc(b1-3)Gal(b1-4)GlcNAc(b1-3)Gal(b1-4)GlcNAc(b1-2)Man(a1-3)[Neu5Ac(a2-3)Gal(b1-4)GlcNAc(b1-3)Gal(b1-4)GlcNAc(b1-3)Gal(b1-4)GlcNAc(b1-2)Man(a1-6)]GalNAc", "outline": "as §1"}, "[4]": {"target": "Neu5Ac(a2-3)Gal(b1-4)GlcNAc(b1-3)Gal(b1-4)GlcNAc(b1-3)GalNAc", "outline": "as §1"}, "[5]": {"target": "Neu5Ac(a2-3)Gal(b1-4)GlcNAc(b1-3)Gal(b1-4)GlcNAc(b1-3)[Neu5Ac(a2-3)Gal(b1-4)GlcNAc(b1-3)Gal(b1-4)GlcNAc(b1-6)]GalNAc", "outline": "as §1"}, "[6]": {"target": "Neu5Ac(a2-3)Gal(b1-4)GlcNAc(b1-3)Gal(b1-4)GlcNAc(b1-6)[Gal(b1-3)]GalNAc", "outline": "as §1"}, "[7]": {"target": "Neu5Ac(a2-3)Gal(b1-4)GlcNAc(b1-3)Gal(b1-4)[Fuc(a1-3)]GlcNAc", "outline": "as §1"}, "[8]": {"target": "Neu5Ac(a2-3)Gal(b1-4)GlcNAc(b1-3)GalNAc", "outline": "as §1"}, "[9]": {"target": "Neu5Ac(a2-3)Gal(b1-4)GlcNAc(b1-3)[Neu5Ac(a2-3)Gal(b1-4)GlcNAc(b1-6)]GalNAc", "outline": "as §1"}, "[10]": {"target": "Neu5Ac(a2-3)Gal(b1-4)GlcNAc(b1-6)GalNAc", "outline": "as §1"}, "[11]": {"target": "Neu5Ac(a2-3)Gal(b1-4)GlcNAc(b1-6)[Gal(b1-3)]GalNAc", "outline": "as §1"}, "[12]": {"target": "Neu5Ac(a2-3)Gal(b1-4)GlcNAc(b1-6)[Neu5Ac(a2-3)Gal(b1-3)]GalNAc", "outline": "as §1"}, "[13]": {"target": "Neu5Ac(a2-3)Gal(b1-4)GlcNAc6S", "outline": "as §1"}, "[14]": {"target": "Neu5Ac(a2-3)Gal(b1-4)[Fuc(a1-3)]GlcNAc", "outline": "as §1"}, "[15]": {"target": "Neu5Ac(a2-3)Gal(b1-4)[Fuc(a1-3)]GlcNAc(b1-2)Man", "outline": "as §1"}, "[16]": {"target": "Neu5Ac(a2-3)Gal(b1-4)[Fuc(a1-3)]GlcNAc(b1-3)Gal", "outline": "as §1"}, "[17]": {"target": "Neu5Ac(a2-3)Gal(b1-4)[Fuc(a1-3)]GlcNAc(b1-3)Gal(b1-4)GlcNAc", "outline": "as §1"}, "[18]": {"target": "Neu5Ac(a2-3)Gal(b1-4)[Fuc(a1-3)]GlcNAc(b1-3)Gal(b1-4)[Fuc(a1-3)]GlcNAc(b1-3)Gal(b1-4)[Fuc(a1-3)]GlcNAc", "outline": "as §1"}, "[19]": {"target": "Neu5Ac(a2-3)Gal(b1-4)[Fuc(a1-3)]GlcNAc(b1-3)GalNAc", "outline": "as §1"}, "[20]": {"target": "Neu5Ac(a2-3)Gal(b1-4)[Fuc(a1-3)]GlcNAc(b1-6)[Gal(b1-3)]GalNAc", "outline": "as §1"}, "[21]": {"target": "Neu5Ac(a2-3)Gal(b1-4)[Fuc(a1-3)]GlcNAc(b1-6)[Neu5Ac(a2-3)Gal(b1-3)]GalNAc", "outline": "as §1"}, "[22]": {"target": "Neu5Ac(a2-3)Gal(b1-4)[Fuc(a1-3)]GlcNAc6S", "outline": "as §1"}, "[23]": {"target": "Neu5Ac(a2-3)Gal6S(b1-4)GlcNAc", "outline": "as §1"}, "[24]": {"target": "Neu5Ac(a2-3)Gal6S(b1-4)[Fuc(a1-3)]GlcNAc", "outline": "as §1"}, "[25]": {"target": "Neu5Ac(a2-3)GalNAc", "outline": "as §1"}, "[26]": {"target": "Neu5Ac(a2-3)GalNAc(b1-4)GlcNAc", "outline": "as §1"}, "[27]": {"target": "Neu5Ac(a2-3)[GalNAc(b1-4)]Gal(b1-4)Glc", "outline": "as §1"}, "[28]": {"target": "Neu5Ac(a2-3)[GalNAc(b1-4)]Gal(b1-4)GlcNAc", "outline": "as §1"}, "[29]": {"target": "Neu5Ac(a2-3)[GalNAc(b1-4)]Gal(b1-4)GlcNAc(b1-3)GalNAc", "outline": "as §1"}, "[30]": {"target": "Neu5Ac(a2-3)[Neu5Ac(a2-6)]GalNAc", "outline": "as §1"}, "[31]": {"target": "Neu5Ac(a2-6)Gal", "outline": "as §1"}, "[32]": {"target": "Neu5Ac(a2-6)Gal(b1-3)GlcNAc(b1-3)[Gal(b1-4)GlcNAc(b1-6)]Gal(b1-4)Glc", "outline": "as §1"}, "[33]": {"target": "Neu5Ac(a2-6)Gal(b1-4)Glc", "outline": "as §1"}, "[34]": {"target": "Neu5Ac(a2-6)Gal(b1-4)GlcNAc", "outline": "as §1"}, "[35]": {"target": "Neu5Ac(a2-6)Gal(b1-4)GlcNAc(b1-2)Man", "outline": "as §1"}, "[36]": {"target": "Neu5Ac(a2-6)Gal(b1-4)GlcNAc(b1-2)Man(a1-3)Man(b1-4)GlcNAc(b1-4)GlcNAc", "outline": "as §1"}, "[37]": {"target": "Neu5Ac(a2-6)Gal(b1-4)GlcNAc(b1-2)Man(a1-3)[Gal(b1-4)GlcNAc(b1-2)Man(a1-6)]Man(b1-4)GlcNAc(b1-4)GlcNAc", "outline": "as §1"}, "[38]": {"target": "Neu5Ac(a2-6)Gal(b1-4)GlcNAc(b1-2)Man(a1-3)[GlcNAc(b1-2)Man(a1-6)]Man(b1-4)GlcNAc(b1-4)GlcNAc", "outline": "as §1"}}, "note": "This is one part of the list."}
{"binder": "B1", "values": [{"measurement": "glycan array binding signal (z-score)", "setting": "[1]", "result": 0.264}, {"measurement": "glycan array binding signal (z-score)", "setting": "[2]", "result": 0.081}, {"measurement": "glycan array binding signal (z-score)", "setting": "[3]", "result": 0.449}, {"measurement": "glycan array binding signal (z-score)", "setting": "[4]", "result": 0.859}, {"measurement": "glycan array binding signal (z-score)", "setting": "[5]", "result": 0.746}, {"measurement": "glycan array binding signal (z-score)", "setting": "[6]", "result": -0.202}, {"measurement": "glycan array binding signal (z-score)", "setting": "[7]", "result": 1.36}, {"measurement": "glycan array binding signal (z-score)", "setting": "[8]", "result": 0.311}, {"measurement": "glycan array binding signal (z-score)", "setting": "[9]", "result": 2.5}, {"measurement": "glycan array binding signal (z-score)", "setting": "[10]", "result": -0.453}, {"measurement": "glycan array binding signal (z-score)", "setting": "[11]", "result": -0.111}, {"measurement": "glycan array binding signal (z-score)", "setting": "[12]", "result": -0.893}, {"measurement": "glycan array binding signal (z-score)", "setting": "[13]", "result": -0.572}, {"measurement": "glycan array binding signal (z-score)", "setting": "[14]", "result": -0.771}, {"measurement": "glycan array binding signal (z-score)", "setting": "[15]", "result": -0.965}, {"measurement": "glycan array binding signal (z-score)", "setting": "[16]", "result": 0}, {"measurement": "glycan array binding signal (z-score)", "setting": "[17]", "result": -0.286}, {"measurement": "glycan array binding signal (z-score)", "setting": "[18]", "result": -0.091}, {"measurement": "glycan array binding signal (z-score)", "setting": "[19]", "result": 0.527}, {"measurement": "glycan array binding signal (z-score)", "setting": "[20]", "result": 0.041}, {"measurement": "glycan array binding signal (z-score)", "setting": "[21]", "result": 3.41}, {"measurement": "glycan array binding signal (z-score)", "setting": "[22]", "result": 0.647}, {"measurement": "glycan array binding signal (z-score)", "setting": "[23]", "result": 0.026}, {"measurement": "glycan array binding signal (z-score)", "setting": "[24]", "result": -0.138}, {"measurement": "glycan array binding signal (z-score)", "setting": "[25]", "result": 0.196}, {"measurement": "glycan array binding signal (z-score)", "setting": "[26]", "result": -0.252}, {"measurement": "glycan array binding signal (z-score)", "setting": "[27]", "result": -1.2}, {"measurement": "glycan array binding signal (z-score)", "setting": "[28]", "result": -0.774}, {"measurement": "glycan array binding signal (z-score)", "setting": "[29]", "result": 0.404}, {"measurement": "glycan array binding signal (z-score)", "setting": "[30]", "result": -0.793}, {"measurement": "glycan array binding signal (z-score)", "setting": "[31]", "result": 1.02}, {"measurement": "glycan array binding signal (z-score)", "setting": "[32]", "result": 0.911}, {"measurement": "glycan array binding signal (z-score)", "setting": "[33]", "result": -0.729}, {"measurement": "glycan array binding signal (z-score)", "setting": "[34]", "result": -0.279}, {"measurement": "glycan array binding signal (z-score)", "setting": "[35]", "result": 0.277}, {"measurement": "glycan array binding signal (z-score)", "setting": "[36]", "result": -1.09}, {"measurement": "glycan array binding signal (z-score)", "setting": "[37]", "result": -0.494}, {"measurement": "glycan array binding signal (z-score)", "setting": "[38]", "result": 0.327}]}
